Values quoted from earlier work as cited in patent publication US20260000784A1, “PEPTIDIC WATER-SOLUBLE DELIVERY SYSTEM OF ANTICANCER DRUGS” (HOSPITAL SANT JOAN DE DEU, priority 2022, published 2026).
For at least one compound, name, drawing or mass did not settle the structure.

Conditions: cited from earlier work

Compound: CCc1c2c(nc3ccc(O)cc13)-c1cc3c(c(=O)n1C2)COC(=O)[C@]3(O)CC [SN-38, 7-ethyl-10-hydroxycamptothecin]
- activity relative to irinotecan: 1000 times
- potency of SN-38 relative to irinotecan (in vitro cytotoxicity assays): 2- to 2000 fold
